# Measured values: paper PMC11637483, “Dissecting caspase-2-mediated cell death: from intrinsic PIDDosome activation to chemical modulation” (Protein & Cell, 2024)
# Sequences of proteins named here, by UniProt entry; tags and fusion partners are left off. A change or cut given only in a name is not applied to a line headed by its entry.
# UniProt Q9HB75: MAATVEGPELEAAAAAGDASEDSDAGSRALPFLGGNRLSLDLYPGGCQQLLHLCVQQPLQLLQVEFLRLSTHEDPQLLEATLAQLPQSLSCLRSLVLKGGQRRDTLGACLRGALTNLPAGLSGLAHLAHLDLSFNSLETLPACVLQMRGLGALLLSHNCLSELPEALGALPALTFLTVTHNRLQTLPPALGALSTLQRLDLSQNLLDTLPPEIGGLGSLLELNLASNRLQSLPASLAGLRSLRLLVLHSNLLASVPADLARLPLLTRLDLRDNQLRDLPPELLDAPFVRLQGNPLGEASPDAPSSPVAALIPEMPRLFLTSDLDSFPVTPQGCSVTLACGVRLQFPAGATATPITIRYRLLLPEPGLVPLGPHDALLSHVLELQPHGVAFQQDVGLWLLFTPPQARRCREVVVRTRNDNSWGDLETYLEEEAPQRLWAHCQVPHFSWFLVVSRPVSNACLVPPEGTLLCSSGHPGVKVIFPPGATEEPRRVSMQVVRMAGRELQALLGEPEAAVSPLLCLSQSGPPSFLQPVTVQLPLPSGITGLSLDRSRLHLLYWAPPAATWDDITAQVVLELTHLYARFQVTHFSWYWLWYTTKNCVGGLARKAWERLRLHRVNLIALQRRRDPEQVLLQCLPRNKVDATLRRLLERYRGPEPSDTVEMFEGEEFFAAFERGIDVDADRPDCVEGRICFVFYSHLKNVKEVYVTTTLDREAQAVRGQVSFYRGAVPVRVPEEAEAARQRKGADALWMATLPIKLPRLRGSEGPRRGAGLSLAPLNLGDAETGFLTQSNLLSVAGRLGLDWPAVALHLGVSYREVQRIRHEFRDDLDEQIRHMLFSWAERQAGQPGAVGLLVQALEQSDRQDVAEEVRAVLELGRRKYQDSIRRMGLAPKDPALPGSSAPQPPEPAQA
# UniProt P78560: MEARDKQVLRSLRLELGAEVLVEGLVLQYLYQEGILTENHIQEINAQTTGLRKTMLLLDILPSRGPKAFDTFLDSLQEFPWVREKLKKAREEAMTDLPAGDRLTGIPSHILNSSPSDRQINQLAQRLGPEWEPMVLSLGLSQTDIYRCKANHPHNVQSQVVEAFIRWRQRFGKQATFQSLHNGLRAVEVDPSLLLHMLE
# No constants are given. Whether binding was seen depends on the method and setting. Binding can be weak; no strength is given.
# Biological target: death domain of PIDD1 (PIDD1-DD) (human) (UniProt Q9HB75)
# Assay: SEC; complex of the three proteins co-expressed in E. coli and purified, loaded on a Superdex 200 10/300 GL column, eluted with 20 mmol/L Tris-HCl pH 8.0, 150 mmol/L NaCl, 1 mmol/L TCEP; fractions analysed by SDS-PAGE; both purified
substance,measurement,value
RAIDD (from UniProt P78560 1-199),binding,binds
